Reference: PubChem BioAssay AID504834 (National Center for Advancing Translational Sciences (NCATS), 2011)
The campaign covered roughly 320,000 compounds. About 22,000 (6.9%) were called active. The inconclusive results got no clear call from the source; some entries with a clear call stand among them for comparison. The call rests on the fitted dose curve; in most records, active means well fitted inhibition curve with a large enough effect; inconclusive means small, poorly fitted or top-dose-only effect, or another doubt; inactive means no such curve, though single readings can be large or run the other way. Potencies beside an inconclusive call are fits to weak or partial responses and may not hold up.

Test: Primary qHTS for delayed death inhibitors of the malarial parasite plastid, 96 hour incubation
Conditions: P. falciparum luciferase reporter growth; series mostly up to 28.7 µM
Summary of the method: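 Two-generation exposure (96 h) targets delayed-death phenotype. Reporter parasites carrying integrated firefly luciferase, in red cells at 2% hematocrit and 0.05% parasitemia final, kept at 37 C, 5% CO2; luminescence loss indicates inhibition.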
Potency means the concentration at half of the fitted maximal effect.

Row | SMILES | Potency
1 | Cc1ccc2nc(SCC(=O)Nc3ccc(F)c([N+](=O)[O-])c3)[nH]c2c1 | inactive
2 | Cc1cc(C)cc(-n2nnc(C(=O)NCc3ccco3)c2N)c1 | inconclusive: 0.465 µM [inhibitor, full curve]
3 | O=S1(=O)[C@H]2C[C@@H]3C=C[C@]2(CN1Cc1ccc(C(F)(F)F)cc1)O3 | inconclusive: 13.1 µM [inhibitor, single point]
4 | CCOc1ccc(C2CC(c3ccccc3C)n3nc(N)nc3N2)cc1 (centres undefined) | inconclusive: 2.62 µM [inhibitor, full curve, poor fit]
5 | Cc1ccc([C@@H]2CC=C(C(=O)O)[C@H](c3cccc(Cl)c3)N2S(=O)(=O)c2ccc(C)cc2)cc1 | inconclusive: 18.5 µM [inhibitor, single point]
6 | CCN(CCn1cccn1)C(=O)c1cc(COc2c(F)cccc2F)on1 | inconclusive: 18.5 µM [inhibitor, partial curve, poor fit]
7 | COc1ccc(C2=NN(C(=O)COC(=O)c3ccc(NC(=O)CC#N)cc3)C(c3ccco3)C2)cc1 (centres undefined) | inconclusive: 18.5 µM [inhibitor, single point]
8 | CC(C(=O)N(C)C)N1c2cccc3cccc(c23)S1(=O)=O (centres undefined) | inconclusive: 11.7 µM [inhibitor, single point]
9 | O=C1C2C(C(=O)N1Cc1ccco1)C1C=CC2C12CC2 (centres undefined) | inconclusive: 10.4 µM [inhibitor, single point]
10 | CCN(CC)c1ccc(SS(=O)(=O)O)cc1 | inconclusive: 10.4 µM [inhibitor, partial curve]
11 | CC(C)(C)C1CCC(=NNC(=O)c2cc(-c3ccccc3)n[nH]2)CC1 (centres undefined) | inconclusive: 18.5 µM [inhibitor, single point]
12 | Cc1ccccc1NC1=CC(=O)CC(C)(C)C1 | inactive
13 | CC(=O)N1N=C(c2ccccc2)OC1c1ccc([N+](=O)[O-])s1 (centres undefined) | inconclusive: 9.28 µM [inhibitor, partial curve, poor fit]
14 | COc1cccc(C(=O)NN2c3ccccc3CCc3ccccc32)c1 | active: 13.1 µM
15 | COc1ccc(NS(=O)(=O)c2ccc(Br)cc2)cn1 | inactive
16 | Cc1ccc(C)n1-n1c(C)nc2sc3c(c2c1=O)CCCCC3 | active: 11.7 µM
17 | Cc1c(-c2cccc(Cl)c2)nc2ccccc2c1C(=O)OCC(=O)N(C)C1CCS(=O)(=O)C1 (centres undefined) | inconclusive: 18.5 µM [inhibitor, single point]
18 | CC(=O)Nc1ccc(C(=O)CN2CCN(c3ccccc3)CC2)cc1 | inactive
19 | O=C(Nc1ccc(S(=O)(=O)Nc2ccccc2F)cc1)N1CCCCC1 | inconclusive: 0.465 µM [inhibitor, partial curve, poor fit]
20 | COCc1ccc(-c2c(-c3cc(OC)cc(OC)c3)oc(=O)c3cc(OC)c(OC)cc23)cc1 | inconclusive: 13.1 µM [inhibitor, partial curve]
21 | O=C(Nc1ccccc1Cl)C1(c2ccccc2)CC1(Cl)Cl (centres undefined) | inconclusive: 13.1 µM [inhibitor, single point]
22 | CCCn1c2c(c(=N)c3c1CCC3)CCC2 | inconclusive: 0.185 µM [inhibitor, full curve, poor fit]

Row | SMILES | Potency
23 | CCN1C(=O)[C@@H]2[C@@H](c3ccc(-c4ccc5c(c4)OCO5)c(OC)c3)N3CCCC[C@@]3(C(=O)OC)[C@@H]2C1=O | active: 11.7 µM
24 | O=C(Nc1cccc(C(F)(F)F)c1)C(Sc1ncnc2ccccc12)c1ccccc1 (centres undefined) | inconclusive: 13.1 µM [inhibitor, partial curve, poor fit]
25 | COCC(C)(C)COS(N)(=O)=O | inactive
26 | CCOC(=O)c1ccc(Nc2cc(C)nc(N3CCOCC3)n2)cc1 | inconclusive: 13.1 µM [inhibitor, single point]
27 | CCOC(=O)c1c(NC(=O)CN2CCCCC2)sc(CN(C)C)c1-c1ccccc1 | inactive
28 | O=c1[nH]c(/C=C\c2ccc(O)cc2)nc(O)c1[N+](=O)[O-] | inconclusive: 18.5 µM [inhibitor, single point]
29 | CC(C)(C)c1ccc(OCCC(=O)Nc2cccc(S(=O)(=O)N3CCCCC3)c2)cc1 | inconclusive: 18.5 µM [inhibitor, single point]
30 | CCOc1ccccc1C(=O)OCC(=O)Nc1nnc(-c2ccccc2)o1 | inconclusive: 18.5 µM [inhibitor, partial curve, poor fit]
31 | CCCn1c(N2CCOCC2)nc2c1c(=O)[nH]c(=O)n2C | inconclusive: 18.5 µM [inhibitor, single point]
32 | O=C(Cc1csc(-c2ccccc2)n1)NCc1cccs1 | inactive
33 | Cn1c(=O)cc(NCCc2ccccc2)[nH]c1=O | inactive
34 | CN1N=C(C(=O)N2CCCC(Nc3ccc(F)c(F)c3)C2)CCC1=O (centres undefined) | inconclusive: 16.5 µM [inhibitor, partial curve, poor fit]
35 | Cn1c(-c2ccccc2[N+](=O)[O-])[n+](C)c2ccccc21 | active: 4.15 µM
36 | O=C(C1CCCN(S(=O)(=O)c2cc(Cl)ccc2Cl)C1)N1CCCC1 (centres undefined) | inconclusive: 11.7 µM [inhibitor, single point]
37 | O=C(CCc1c[nH]c2ccccc12)NCc1ccncc1 | inactive
38 | COc1ccc(S(=O)(=O)N2CCC(C(=O)N3CCCC3)CC2)cc1C | inactive
39 | COc1ccc(NC(=O)CSc2nc3ccccc3c(=O)n2Cc2cccs2)c(OC)c1 | inconclusive: 14.7 µM [inhibitor, single point]
40 | Cc1noc(C)c1C(=O)OCC(=O)/C=C1\N(C)c2ccccc2C1(C)C | inactive
41 | O=C(Nc1cc(C(F)(F)F)ccc1N1CCOCC1)c1cccc(F)c1 | inconclusive: 11.7 µM [inhibitor, partial curve, poor fit]
42 | CCC(=O)N1CCc2cc(S(=O)(=O)CCC(=O)N3CCN(c4ccccc4F)CC3)ccc21 | inactive
43 | CCN1C(=O)CSC1=Nc1cccc(C(=O)O)c1 | inconclusive: 0.465 µM [inhibitor, full curve, poor fit]
44 | C/C(=N\Nc1nc2ccccc2[nH]1)c1ccc([N+](=O)[O-])cc1 | active: 0.0657 µM

Copied from above, nos. 17 to 18
Row | SMILES | Potency
17 | Cc1c(-c2cccc(Cl)c2)nc2ccccc2c1C(=O)OCC(=O)N(C)C1CCS(=O)(=O)C1 (centres undefined) | inconclusive: 18.5 µM [inhibitor, single point]
18 | CC(=O)Nc1ccc(C(=O)CN2CCN(c3ccccc3)CC2)cc1 | inactive
